Measurements from article PMC10746112, “Synthesis and Pro-Apoptotic Effects of Nitrovinylanthracenes and Related Compounds in Chronic Lymphocytic Leukaemia (CLL) and Burkitt’s Lymphoma (BL)” (Molecules, 2023).
pIC50: −log10 of the molar value.

How the values were obtained:
[1] = system: MDA-MB-231 human breast cancer cells; assay: alamarBlue cell viability assay; type: cell-based; conditions: eight concentrations 0.001–50 μM
[2] = system: MCF-7 human breast cancer cells; assay: alamarBlue cell viability assay; conditions: MCF7, read-out: MCF-7 IC50
[3] = system: DG-75 Burkitt’s lymphoma cell line; conditions: read-out: IC50 DG-75; previous work; cited from earlier work
[4] = system: MUTU-I Burkitt’s lymphoma cell line; conditions: read-out: IC50 MUTU-I; previous work; cited from earlier work

Structure (SMILES) | pIC50 [1] | pIC50 [2] | pIC50 [3] | pIC50 [4]
CC/C(=C(\c1ccccc1)c1ccc(OCCN(C)C)cc1)c1ccccc1 [Tamoxifen, tamoxifen, reference compound] | 4.70 | 5.39 |  | 
CNCCCC12CCC(c3ccccc31)c1ccccc12 [Maprotiline, maprotiline, reference compound] |  |  | 4.43 | 4.80
